These are yes or no findings as the source states them, for the method shown. Binding seen in cells or lysates may run through a third protein. Some binding calls cover weakened binding; strength is not graded here.
Legend:
[1] = molecular target: T1, SNW1 (human (endogenous in MDA-MB-231)) (UniProt Q13573); test: co-IP; endogenous proteins; MDA-MB-231 cells preincubated 3 h with 50 uM MG132, induced or not with 2 ng/ml TGF-beta for 1 h; lysed in 150 mM co-IP buffer; IP with antibodies against Smad4, SNW1 or Ski, beads alone as negative control; Western blot
T1 sequence: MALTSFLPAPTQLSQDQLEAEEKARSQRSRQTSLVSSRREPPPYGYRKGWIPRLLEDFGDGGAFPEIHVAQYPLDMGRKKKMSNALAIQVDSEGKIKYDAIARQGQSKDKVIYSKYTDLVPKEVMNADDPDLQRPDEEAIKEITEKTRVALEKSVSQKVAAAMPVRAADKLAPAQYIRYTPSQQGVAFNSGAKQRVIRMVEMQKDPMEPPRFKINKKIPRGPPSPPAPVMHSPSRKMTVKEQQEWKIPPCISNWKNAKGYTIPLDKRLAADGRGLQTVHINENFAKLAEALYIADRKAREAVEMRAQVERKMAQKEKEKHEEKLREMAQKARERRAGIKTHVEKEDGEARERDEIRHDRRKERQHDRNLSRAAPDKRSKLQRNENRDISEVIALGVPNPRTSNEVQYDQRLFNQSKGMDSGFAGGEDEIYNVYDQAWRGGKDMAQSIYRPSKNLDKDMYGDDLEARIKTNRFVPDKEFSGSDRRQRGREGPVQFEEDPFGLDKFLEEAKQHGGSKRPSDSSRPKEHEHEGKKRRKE

By UniProt entry, the sequences of proteins in these tests, tags left out.
UniProt Q13485: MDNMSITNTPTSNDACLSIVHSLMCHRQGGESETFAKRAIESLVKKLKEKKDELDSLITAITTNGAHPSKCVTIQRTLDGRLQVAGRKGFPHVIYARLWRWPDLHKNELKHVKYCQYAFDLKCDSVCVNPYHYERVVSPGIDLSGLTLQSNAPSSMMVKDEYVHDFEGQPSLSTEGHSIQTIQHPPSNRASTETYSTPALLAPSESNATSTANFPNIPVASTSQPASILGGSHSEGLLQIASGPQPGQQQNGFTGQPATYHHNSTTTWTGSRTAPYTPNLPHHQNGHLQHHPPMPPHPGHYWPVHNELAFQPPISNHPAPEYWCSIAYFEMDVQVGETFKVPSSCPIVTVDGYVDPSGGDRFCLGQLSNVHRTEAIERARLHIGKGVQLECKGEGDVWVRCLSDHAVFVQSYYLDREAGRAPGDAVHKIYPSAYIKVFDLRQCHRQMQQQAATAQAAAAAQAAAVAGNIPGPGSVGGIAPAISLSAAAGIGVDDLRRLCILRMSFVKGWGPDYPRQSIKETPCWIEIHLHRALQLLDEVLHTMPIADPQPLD
UniProt P84022: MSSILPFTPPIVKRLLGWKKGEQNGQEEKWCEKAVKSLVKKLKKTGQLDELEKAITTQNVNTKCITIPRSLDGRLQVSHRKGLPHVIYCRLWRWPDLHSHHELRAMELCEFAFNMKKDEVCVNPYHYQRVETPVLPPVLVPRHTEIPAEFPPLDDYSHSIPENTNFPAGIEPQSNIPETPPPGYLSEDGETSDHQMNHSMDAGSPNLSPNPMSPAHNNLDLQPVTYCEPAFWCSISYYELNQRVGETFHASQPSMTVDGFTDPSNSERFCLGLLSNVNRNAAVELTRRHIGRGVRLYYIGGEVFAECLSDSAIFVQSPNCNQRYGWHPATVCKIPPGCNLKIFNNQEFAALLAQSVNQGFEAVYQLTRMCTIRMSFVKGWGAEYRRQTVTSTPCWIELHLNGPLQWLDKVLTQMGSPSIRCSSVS

[2] = molecular target: T2, Ski (human (endogenous in MDA-MB-231)) (UniProt P12755); test: as above
T2 sequence: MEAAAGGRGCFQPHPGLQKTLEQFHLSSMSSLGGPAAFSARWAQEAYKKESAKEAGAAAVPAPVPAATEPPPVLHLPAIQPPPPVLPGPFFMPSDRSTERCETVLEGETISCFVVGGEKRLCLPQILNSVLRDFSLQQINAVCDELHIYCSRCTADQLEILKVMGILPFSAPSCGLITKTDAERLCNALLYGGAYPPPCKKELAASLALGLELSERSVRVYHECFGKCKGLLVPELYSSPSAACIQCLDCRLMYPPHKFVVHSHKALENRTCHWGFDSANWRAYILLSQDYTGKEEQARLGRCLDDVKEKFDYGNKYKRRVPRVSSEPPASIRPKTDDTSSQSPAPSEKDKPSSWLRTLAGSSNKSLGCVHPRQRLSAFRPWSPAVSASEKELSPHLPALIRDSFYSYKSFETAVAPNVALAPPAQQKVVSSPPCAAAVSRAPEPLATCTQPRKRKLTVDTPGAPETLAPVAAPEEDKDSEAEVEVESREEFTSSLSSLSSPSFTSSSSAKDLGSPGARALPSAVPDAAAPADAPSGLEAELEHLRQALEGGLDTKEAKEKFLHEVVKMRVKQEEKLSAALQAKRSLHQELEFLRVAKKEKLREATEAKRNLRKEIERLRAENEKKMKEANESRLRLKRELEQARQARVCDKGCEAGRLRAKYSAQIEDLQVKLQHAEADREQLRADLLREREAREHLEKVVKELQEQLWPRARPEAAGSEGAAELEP

Substance: Smad4 (from UniProt Q13485 1-552)
- binding [1]: no binding
- binding [2]: binds

Substance: Smad3 (from UniProt P84022 1-425)
- binding [2]: binds

From PMC3039673
